Experimental data published in patent US8207176B2 (Glaxo Group Limited, priority 2005, dated 2012).
Counter-ions that a name gives are not always drawn. Some results were stated once for a whole list of compounds, not compound by compound.

The chains behind the UniProt entries cited, without tags or fusion partners.
UniProt Q16539, whole entry: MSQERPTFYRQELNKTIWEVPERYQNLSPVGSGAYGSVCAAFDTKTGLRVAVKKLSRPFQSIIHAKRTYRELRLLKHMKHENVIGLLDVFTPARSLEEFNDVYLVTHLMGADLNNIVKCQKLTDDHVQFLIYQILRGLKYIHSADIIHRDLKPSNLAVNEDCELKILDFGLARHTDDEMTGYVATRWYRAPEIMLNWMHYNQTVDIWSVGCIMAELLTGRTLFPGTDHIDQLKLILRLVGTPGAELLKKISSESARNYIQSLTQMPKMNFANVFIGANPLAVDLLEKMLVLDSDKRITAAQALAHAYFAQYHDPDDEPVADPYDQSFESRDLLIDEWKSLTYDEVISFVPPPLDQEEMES

Biological target: T1, Recombinant human p38α (MKK6-activated) (Homo sapiens, UniProt Q16539)
T1 construct: His; made in house
Test: Time-resolved fluorescence resonance energy transfer (TR-FRET) kinase assay (standard or low volume)
Type: biochemical
Set-up: key: Compounds are considered active in this assay if they demonstrate a pIC50 of greater than 4.6 up to about a pIC50 of greater than 10.0
Conditions: MKK6-activated p38α 100 pM, GST-ATF2 400 nM, 120 minutes at room temperature; either assay format
Experimental: It is noted that there are two assay formats shown above for the Fluorescence anisotropy kinase binding assay. The only difference between these two assays is the volume used and the plate type. […] The results described herein may have been performed in either assay format and are not differentiated as to which. […] TR-FRET Assay Time-Resolved Fluorescence Resonance Energy Transfer Kinase Standard Assay Recombinant human p38α was expressed as a His-tagged protein. To activate this protein, 3 μM unactivated p38α was incubated in 200 mM Hepes pH 7.4, 625 mM NaCl, 1 mM DTT with 27 nM active MKK6 (Upstate), 1 mM ATP and 10 mM MgCl2 The activity of the MKK6-activated p38α was assessed using a time-resolved fluorescence resonance energy transfer (TR-FRET) assay. Biotinylated-GST-ATF2 (residues 19-96, 400 nM final), ATP ([…]) and MgCl2 (5 mM final) in assay buffer (40 mM HEPES pH 7.4, 1 mM DTT) were added to wells containing 1 ul of various concentrations of compound or DMSO vehicle (3% final) in NUNC 384 well black plate. The reaction was initiated by the addition of MKK6-activated p38 (100 pM final) to give a total volume of 30 ul. The reaction was incubated for 120 minutes at room temperature, then terminated by the addition of 15 μl of 100 mM EDTA pH 7.4. Detection reagent (15 μl) in buffer (100 mM HEPES pH 7.4, 150 mM NaCl, 0.1% w/v BSA, 1 mM DTT) containing antiphosphothreonine-ATF2-71 polyclonal antibody (Cell Signalling Technology, Beverly Mass., USA) labelled with W-1024 europium chelate (Wallac OY, Turku, Finland), and APC-labelled streptavidin (Prozyme, San Leandro, Calif., USA) was added and the reaction was further incubated for 60 minutes at room temperature. The degree of phosphorylation of GST-ATF2 was measured using a Packard Discovery plate reader (Perkin-Elmer Life Sciences, Pangbourne, UK) as a ratio of specific 665 nm energy transfer signal to reference europium 620 nm signal. Time-Resolved Fluorescence Resonance Energy Transfer Kinase Low Volume Assay Recombinant human p38α was expressed as a His-tagged protein. To activate this protein, 3 μM unactivated p38α was incubated in 200 mM Hepes pH7.4, 625 mM NaCl, 1 mM DTT with 27 nM active MKK6 (Upstate), 1 mM ATP and 10 mM MgCl2 The activity of the MKK6-activated p38α was assessed using a time-resolved fluorescence resonance energy transfer (TR-FRET) assay. Biotinylated-GST-ATF2 (residues 19-96, 400 nM final), ATP (125 μM final) and MgCl2 ([…]) in assay buffer (40 mM HEPES pH 7.4, 1 mM DTT) were added to wells containing 0.1 μl of various concentrations of compound or DMSO vehicle (1.7% final) in Greiner low volume 384 well black plate. The reaction was initiated by the addition of MKK6-activated p38α (100 pM final) to give a total volume of 6 μl. The reaction was incubated for 120 minutes at room temperature, then terminated by the addition of 3 μl of detection reagent in buffer (100 mM HEPES pH 7.4, 150 mM NaCl, 0.1% w/v BSA, 1 mM DTT, 100 mM EDTA) containing antiphosphothreonine-ATF2-71 polyclonal antibody (Cell Signalling Technology, Beverly Mass., USA) labelled with W-1024 europium chelate (Wallac OY, Turku, Finland), and APC-labelled streptavidin (Prozyme, San Leandro, Calif., USA). The reaction was further incubated for 60 minutes at room temperature. The degree of phosphorylation of GST-ATF2 was measured using a BMG Rubystar plate reader (BMG, UK) as a ratio of specific 665 nm energy transfer signal to reference europium 620 nm signal. It is noted that there are two assay formats shown above for the Time-resolved fluorescence resonance energy transfer kinase assay. The only difference between these two assays is the volume used and the plate type. […] The results described herein may have been performed in either assay format and are not differentiated as to which. […] For purposes herein the HTRF assay and the Fluorescence anisotropy kinase binding assay: […]

Structure (SMILES) | pIC50, reported as active
CCN(CC)CCCNc1nc(-c2cc(C(=O)N[C@@H](C)c3ccccc3)ccc2C)c2ccc(=O)n(-c3c(F)cccc3F)c2n1 [Example 149, 3-[2-{[3-(diethylamino)propyl]amino}-8-(2,6-difluorophenyl)-7-oxo-7,8-dihydropyrido[2,3-d]pyrimidin-4-yl]-4-methyl-N-[(1S)-1-phenylethyl]benzamide] | active
CCN(CC)CCCNc1nc(-c2cc(C(=O)N[C@@H](C)C(C)C)ccc2C)c2ccc(=O)n(-c3c(F)cccc3F)c2n1 [Example 131, 3-[2-{[3-(diethylamino)propyl]amino}-8-(2,6-difluorophenyl)-7-oxo-7,8-dihydropyrido[2,3-d]pyrimidin-4-yl]-N-[(1S)-1,2-dimethylpropyl]-4-methylbenzamide] | active
CCN(CC)CCCNc1nc(-c2cc(C(=O)NC3CCCCC3)ccc2C)c2ccc(=O)n(-c3c(F)cccc3F)c2n1 [Example 143, N-cyclohexyl-3-[2-{[3-(diethylamino)propyl]amino}-8-(2,6-difluorophenyl)-7-oxo-7,8-dihydropyrido[2,3-d]pyrimidin-4-yl]-4-methylbenzamide] | active
CCN(CC)CCCNc1nc(-c2cc(C(=O)NCC3CCCC3)ccc2C)c2ccc(=O)n(-c3c(F)cccc3F)c2n1 [Example 132, N-(cyclopentylmethyl)-3-[2-{[3-(diethylamino)propyl]amino}-8-(2,6-difluorophenyl)-7-oxo-7,8-dihydropyrido[2,3-d]pyrimidin-4-yl]-4-methylbenzamidetrifluoroacetate] | active
CCN(CC)CCCNc1nc(-c2cc(C(=O)NCCC#N)ccc2C)c2ccc(=O)n(-c3c(F)cccc3F)c2n1 [Example 145, N-(2-cyanoethyl)-3-[2-{[3-(diethylamino)propyl]amino}-8-(2,6-difluorophenyl)-7-oxo-7,8-dihydropyrido[2,3-d]pyrimidin-4-yl]-4-methylbenzamide] | active
CCN(CC)CCCNc1nc(-c2cc(C(=O)NCC3CCCO3)ccc2C)c2ccc(=O)n(-c3c(F)cccc3F)c2n1 (stereo not drawn) [Example 142, 3-[2-{[3-(diethylamino)propyl]amino}-8-(2,6-difluorophenyl-7-oxo-7,8-dihydropyrido[2,3-d]pyrimidin-4-yl]-4-methyl-N-(tetrahydro-2-furanylmethyl)benzamide trifluoroacetate] | active
CCN(CC)CCCNc1nc(-c2cc(C(=O)Nc3ccccc3)ccc2C)c2ccc(=O)n(-c3c(F)cccc3F)c2n1 [Example 147, 3-[2-{[3-(diethylamino)propyl]amino}-8-(2,6-difluorophenyl)-7-oxo-7,8-dihydropyrido[2,3-d]pyrimidin-4-yl]-4-methyl-N-phenylbenzamide] | active
CCN(CC)CCCNc1nc(-c2cc(C(=O)NCc3ccc(C)o3)ccc2C)c2ccc(=O)n(-c3c(F)cccc3F)c2n1 [Example 136, 3-[2-{[3-(diethylamino)propyl]amino}-8-(2,6-difluorophenyl)-7-oxo-7,8-dihydropyrido[2,3-d]pyrimidin-4-yl]-4-methyl-N-[(5-methyl-2-furanyl)methyl]benzamide trifluoroacetate] | active
CCSCCNC(=O)c1ccc(C)c(-c2nc(NCCCN(CC)CC)nc3c2ccc(=O)n3-c2c(F)cccc2F)c1 [Example 144, 3-[2-{[3-(diethylamino)propyl]amino}-8-(2,6-difluorophenyl)-7-oxo-7,8-dihydropyrido[2,3-d]pyrimidin-4-yl]-N-[2-(ethylthio)ethyl]-4-methylbenzamide] | active
Cc1ccc(C(=O)O)cc1-c1nc(NCc2ncc[nH]2)nc2c1ccc(=O)n2-c1c(F)cccc1F [Example 98, 3-{8-(2,6-difluorophenyl)-2-[(1H-imidazol-2-ylmethyl)amino]-7-oxo-7,8-dihydropyrido[2,3-d]pyrimidin-4-yl}-4-methylbenzoic acid trifluoroacetate] | active
CCN(CC)CCCNc1nc(-c2cc(C(=O)NC(CO)CO)ccc2C)c2ccc(=O)n(-c3c(F)cccc3F)c2n1 [Example 121, 3-[2-{[3-(diethylamino)propyl]amino}-8-(2,6-difluorophenyl)-7-oxo-7,8-dihydropyrido[2,3-d]pyrimidin-4-yl]-N-[2-hydroxy-1-(hydroxymethyl)ethyl]-4-methylbenzamide] | active
CCN(CC)CCCNc1nc(-c2cc(C(=O)NC3CCC3)ccc2C)c2ccc(=O)n(-c3c(F)cccc3F)c2n1 [Example 137, N-cyclobutyl-3-[2-{[3-(diethylamino)propyl]amino}-8-(2,6-difluorophenyl)-7-oxo-7,8-dihydropyrido[2,3-d]pyrimidin-4-yl]-4-methylbenzamide trifluoroacetate] | active
CCN(CC)CCCNc1nc(-c2cc(C(=O)NCc3cccs3)ccc2C)c2ccc(=O)n(-c3c(F)cccc3F)c2n1 [Example 139, 3-[2-{[3-(diethylamino)propyl]amino}-8-(2,6-difluorophenyl)-7-oxo-7,8-dihydropyrido[2,3-d]pyrimidin-4-yl]-4-methyl-N-(2-thienylmethyl)benzamide trifluoroacetate] | active
CCN(CC)CCCNc1nc(-c2cc(C(=O)Nc3cccnc3)ccc2C)c2ccc(=O)n(-c3c(F)cccc3F)c2n1 [Example 159, 3-[2-{[3-(diethylamino)propyl]amino}-8-(2,6-difluorophenyl)-7-oxo-7,8-dihydropyrido[2,3-d]pyrimidin-4-yl]-4-methyl-N-3-pyridinylbenzamide] | active
CCCCNC(=O)c1ccc(C)c(-c2nc(NCCCN(CC)CC)nc3c2ccc(=O)n3-c2c(F)cccc2F)c1 [Example 123, N-butyl-3-[2-{[3-(diethylamino)propyl]amino}-8-(2,6-difluorophenyl)-7-oxo-7,8-dihydropyrido[2,3-d]pyrimidin-4-yl]-4-methylbenzamide] | active
CCN(CC)CCCNc1nc(-c2cc(C(=O)NCC3CC3)ccc2C)c2ccc(=O)n(-c3c(F)cccc3F)c2n1 [Example 138, N-(cyclopropylmethyl)-3-[2-{[3-(diethylamino)propyl]amino}-8-(2,6-difluorophenyl)-7-oxo-7,8-dihydropyrido[2,3-d]pyridin-4-yl]-4-methylbenzamide trifluoroacetate] | active
CCN(CC)CCCNc1nc(-c2cc(C(=O)NCC(=O)NC)ccc2C)c2ccc(=O)n(-c3c(F)cccc3F)c2n1 [Example 158, 3-[2-{[3-(diethylamino)propyl]amino}-8-(2,6-difluorophenyl)-7-oxo-7,8-dihydropyrido[2,3-d]pyrimidin-4-yl]-4-methyl-N-[2-(methylamino)-2-oxoethyl]benzamide] | active
CCN(CC)CCCNc1nc(-c2cc(C(=O)Nc3ccc(F)cc3)ccc2C)c2ccc(=O)n(-c3c(F)cccc3F)c2n1 [Example 160, 3-[2-{[3-(diethylamino)propyl]amino}-8-(2,6-difluorophenyl)-7-oxo-7,8-dihydropyrido[2,3-d]pyrimidin-4-yl]-N-(4-fluorophenyl)-4-methylbenzamide] | active
